Data published in article PMC6763788.
Like-named read-outs stand apart in the source and are kept apart here. Results are given in words; binding and its absence hold for the method and conditions named. Binding seen in cells or lysates may run through a third protein. These calls come from enrichment with a bait or labelling near it, and not all partners need be listed. Where a sequence is shown, tags or fusion partners need not be part of it.

The chains behind the UniProt entries cited, without tags or fusion partners.
UniProt Q14999: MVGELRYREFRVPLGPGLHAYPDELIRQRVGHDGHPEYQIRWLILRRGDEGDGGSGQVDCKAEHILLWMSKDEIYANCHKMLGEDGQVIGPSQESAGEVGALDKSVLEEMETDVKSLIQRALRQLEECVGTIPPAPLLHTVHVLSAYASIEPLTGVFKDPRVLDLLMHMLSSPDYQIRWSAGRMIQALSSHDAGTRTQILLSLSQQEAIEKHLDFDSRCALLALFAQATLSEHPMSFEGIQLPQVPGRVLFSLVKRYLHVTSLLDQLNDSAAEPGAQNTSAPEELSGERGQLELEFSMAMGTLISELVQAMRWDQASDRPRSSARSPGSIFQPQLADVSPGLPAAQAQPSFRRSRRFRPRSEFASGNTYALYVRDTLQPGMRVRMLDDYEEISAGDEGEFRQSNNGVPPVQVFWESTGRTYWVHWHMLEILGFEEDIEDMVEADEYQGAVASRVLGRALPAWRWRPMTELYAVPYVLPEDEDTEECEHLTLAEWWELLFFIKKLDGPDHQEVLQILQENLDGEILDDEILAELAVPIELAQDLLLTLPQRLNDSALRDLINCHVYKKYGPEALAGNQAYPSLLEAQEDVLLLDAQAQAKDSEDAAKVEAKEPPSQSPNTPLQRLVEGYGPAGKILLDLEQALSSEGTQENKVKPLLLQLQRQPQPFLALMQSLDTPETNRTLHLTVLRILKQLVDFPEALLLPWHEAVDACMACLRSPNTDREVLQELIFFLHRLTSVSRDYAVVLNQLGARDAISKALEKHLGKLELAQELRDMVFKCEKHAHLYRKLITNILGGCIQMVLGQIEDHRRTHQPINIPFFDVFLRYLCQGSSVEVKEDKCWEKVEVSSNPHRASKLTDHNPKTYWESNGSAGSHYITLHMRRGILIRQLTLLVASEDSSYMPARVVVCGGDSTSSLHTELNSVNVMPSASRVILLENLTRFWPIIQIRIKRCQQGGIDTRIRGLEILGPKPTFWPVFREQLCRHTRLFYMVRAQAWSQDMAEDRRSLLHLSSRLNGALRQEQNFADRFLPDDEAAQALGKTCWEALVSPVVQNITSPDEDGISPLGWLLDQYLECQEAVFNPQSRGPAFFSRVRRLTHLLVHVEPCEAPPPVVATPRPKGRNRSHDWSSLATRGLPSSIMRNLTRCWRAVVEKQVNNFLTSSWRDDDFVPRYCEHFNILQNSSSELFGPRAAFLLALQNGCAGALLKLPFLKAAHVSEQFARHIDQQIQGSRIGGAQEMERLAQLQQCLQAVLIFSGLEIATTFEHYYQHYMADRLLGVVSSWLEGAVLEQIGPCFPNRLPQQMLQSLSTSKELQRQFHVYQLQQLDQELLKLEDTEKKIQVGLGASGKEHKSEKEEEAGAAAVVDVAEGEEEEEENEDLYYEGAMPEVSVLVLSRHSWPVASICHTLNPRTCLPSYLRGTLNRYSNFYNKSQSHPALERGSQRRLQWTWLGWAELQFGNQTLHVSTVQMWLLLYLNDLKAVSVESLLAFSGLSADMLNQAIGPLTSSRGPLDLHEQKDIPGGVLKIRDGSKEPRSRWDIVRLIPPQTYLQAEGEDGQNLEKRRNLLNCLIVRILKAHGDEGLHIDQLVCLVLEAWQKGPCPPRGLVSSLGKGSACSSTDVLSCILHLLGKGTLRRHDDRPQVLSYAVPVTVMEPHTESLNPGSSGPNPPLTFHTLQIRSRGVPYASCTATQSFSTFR
UniProt Q13509: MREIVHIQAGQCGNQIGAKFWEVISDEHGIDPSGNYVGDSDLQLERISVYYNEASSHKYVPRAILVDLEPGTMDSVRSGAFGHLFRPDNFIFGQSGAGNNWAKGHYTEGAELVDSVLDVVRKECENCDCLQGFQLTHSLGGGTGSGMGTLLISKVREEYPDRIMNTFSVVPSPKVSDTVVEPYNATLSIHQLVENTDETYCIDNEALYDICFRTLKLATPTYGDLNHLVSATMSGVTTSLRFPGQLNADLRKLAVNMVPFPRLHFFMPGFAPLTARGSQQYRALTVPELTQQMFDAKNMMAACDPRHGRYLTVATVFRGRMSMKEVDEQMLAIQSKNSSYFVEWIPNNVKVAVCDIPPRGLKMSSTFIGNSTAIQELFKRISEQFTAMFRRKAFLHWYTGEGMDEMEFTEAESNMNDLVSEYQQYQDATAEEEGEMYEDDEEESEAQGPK
UniProt Q06330: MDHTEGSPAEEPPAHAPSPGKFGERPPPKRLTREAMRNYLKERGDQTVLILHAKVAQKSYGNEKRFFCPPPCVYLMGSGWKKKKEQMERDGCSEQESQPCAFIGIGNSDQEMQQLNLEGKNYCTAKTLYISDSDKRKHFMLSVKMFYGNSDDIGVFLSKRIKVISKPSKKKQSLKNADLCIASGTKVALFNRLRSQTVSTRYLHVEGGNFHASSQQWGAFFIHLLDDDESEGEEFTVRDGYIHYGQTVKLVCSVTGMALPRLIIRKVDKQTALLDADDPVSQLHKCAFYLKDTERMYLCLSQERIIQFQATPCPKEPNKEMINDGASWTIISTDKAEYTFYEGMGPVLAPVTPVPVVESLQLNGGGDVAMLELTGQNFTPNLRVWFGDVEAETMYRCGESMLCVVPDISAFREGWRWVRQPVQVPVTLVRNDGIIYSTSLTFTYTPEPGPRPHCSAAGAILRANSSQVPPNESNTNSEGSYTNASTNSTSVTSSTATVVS
UniProt Q9BQE3: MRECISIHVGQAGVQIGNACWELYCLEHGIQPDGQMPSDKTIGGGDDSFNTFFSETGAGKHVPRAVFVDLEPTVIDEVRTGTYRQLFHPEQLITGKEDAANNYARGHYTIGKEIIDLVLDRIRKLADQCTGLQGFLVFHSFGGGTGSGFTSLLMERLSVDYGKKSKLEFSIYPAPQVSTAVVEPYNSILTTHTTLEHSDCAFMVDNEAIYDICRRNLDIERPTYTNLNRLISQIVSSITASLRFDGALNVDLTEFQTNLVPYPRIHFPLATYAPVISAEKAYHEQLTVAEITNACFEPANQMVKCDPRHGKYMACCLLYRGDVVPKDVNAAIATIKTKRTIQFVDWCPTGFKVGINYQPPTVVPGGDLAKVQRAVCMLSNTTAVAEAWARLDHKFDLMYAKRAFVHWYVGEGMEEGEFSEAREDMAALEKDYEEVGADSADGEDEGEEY
UniProt P12814: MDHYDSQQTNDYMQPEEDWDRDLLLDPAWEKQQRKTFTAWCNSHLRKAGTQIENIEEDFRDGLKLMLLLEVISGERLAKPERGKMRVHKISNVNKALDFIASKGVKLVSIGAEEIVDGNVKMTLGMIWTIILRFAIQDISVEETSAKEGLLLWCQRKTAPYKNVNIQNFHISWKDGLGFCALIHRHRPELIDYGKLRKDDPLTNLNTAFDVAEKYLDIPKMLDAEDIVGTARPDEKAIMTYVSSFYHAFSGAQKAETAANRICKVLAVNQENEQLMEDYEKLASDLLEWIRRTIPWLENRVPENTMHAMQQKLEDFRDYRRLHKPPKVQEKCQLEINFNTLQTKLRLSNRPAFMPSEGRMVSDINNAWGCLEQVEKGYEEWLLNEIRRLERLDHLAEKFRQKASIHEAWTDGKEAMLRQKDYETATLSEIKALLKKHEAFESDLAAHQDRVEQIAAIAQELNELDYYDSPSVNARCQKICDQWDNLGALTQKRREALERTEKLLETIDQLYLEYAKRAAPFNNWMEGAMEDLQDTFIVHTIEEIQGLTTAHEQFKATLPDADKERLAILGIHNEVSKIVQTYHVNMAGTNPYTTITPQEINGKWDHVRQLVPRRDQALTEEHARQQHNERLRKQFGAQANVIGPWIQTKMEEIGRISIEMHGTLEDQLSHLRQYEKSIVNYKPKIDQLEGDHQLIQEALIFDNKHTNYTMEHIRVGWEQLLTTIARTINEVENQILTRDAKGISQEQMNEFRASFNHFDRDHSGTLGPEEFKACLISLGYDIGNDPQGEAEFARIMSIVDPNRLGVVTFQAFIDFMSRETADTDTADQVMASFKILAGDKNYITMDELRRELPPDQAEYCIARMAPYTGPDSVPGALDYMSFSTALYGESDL

T1: hemagglutinin (HA)-tagged RITA (RBP-J-interacting and tubulin-associated protein) (UniProt Q96K30)
T1 sequence: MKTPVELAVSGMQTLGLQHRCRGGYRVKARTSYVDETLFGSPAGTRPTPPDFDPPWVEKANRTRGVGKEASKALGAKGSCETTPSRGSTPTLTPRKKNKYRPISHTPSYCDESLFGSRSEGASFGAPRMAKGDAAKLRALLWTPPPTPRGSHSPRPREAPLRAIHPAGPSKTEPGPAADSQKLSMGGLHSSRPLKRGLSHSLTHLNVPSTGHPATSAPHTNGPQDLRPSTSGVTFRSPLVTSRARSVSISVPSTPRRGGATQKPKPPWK

B1: lipoma-preferred partner (LPP), endogenous in HEK293 (protein, UniProt Q93052 1-612)
chain: MSHPSWLPPKSTGEPLGHVPARMETTHSFGNPSISVSTQQPPKKFAPVVAPKPKYNPYKQPGGEGDFLPPPPPPLDDSSALPSISGNFPPPPPLDEEAFKVQGNPGGKTLEERRSSLDAEIDSLTSILADLECSSPYKPRPPQSSTGSTASPPVSTPVTGHKRMVIPNQPPLTATKKSTLKPQPAPQAGPIPVAPIGTLKPQPQPVPASYTTASTSSRPTFNVQVKSAQPSPHYMAAPSSGQIYGSGPQGYNTQPVPVSGQCPPPSTRGGMDYAYIPPPGLQPEPGYGYAPNQGRYYEGYYAAGPGYGGRNDSDPTYGQQGHPNTWKREPGYTPPGAGNQNPPGMYPVTGPKKTYITDPVSAPCAPPLQPKGGHSGQLGPSSVAPSFRPEDELEHLTKKMLYDMENPPADEYFGRCARCGENVVGEGTGCTAMDQVFHVDCFTCIICNNKLRGQPFYAVEKKAYCEPCYINTLEQCNVCSKPIMERILRATGKAYHPHCFTCVMCHRSLDGIPFTVDAGGLIHCIEDFHKKFAPRCSVCKEPIMPAPGQEETVRIVALDRDFHVHCYRCEDCGGLLSEGDNQGCYPLDGHILCKTCNSARIRVLTAKASTDL

Tests used:
[1] = target: T1, hemagglutinin (HA)-tagged RITA (RBP-J-interacting and tubulin-associated protein); assay: affinity purification with mass spectrometry; HEK293 cells transfected with HA-tagged RITA; anti-HA IP of lysates, HA peptide elution, LC-MS/MS on trypsinized immune complexes; CompPASS scoring (HCIP here: APSM >= 5 and WD^N >= 3)
[2] = target: T1, hemagglutinin (HA)-tagged RITA (RBP-J-interacting and tubulin-associated protein); assay: as above; remark: listed apart in the source

Row | Molecule | binding [1] | binding [2]
1 | Cul7 (from UniProt Q14999 1-1698) | binds | –
2 | tubulin β3 (from UniProt Q13509 1-450) | binds | –
3 | RBP-J (from UniProt Q06330 1-500) | binds | –
4 | tubulin α1C (from UniProt Q9BQE3 1-449) | binds | –
5 | α-actinin 1 (from UniProt P12814 1-892) | binds | –
6 | B1 | – | binds
